# According to patent US7538241B2, “Hsp90 family protein inhibitors” (Kyowa Hakko Kogyo Co., Ltd., priority 2003, dated 2009):
# Some of these results come from one statement about several compounds together. At least one compound was matched to its structure with a doubt left.
# Target: T1, Human N-terminal recombinant Hsp90 protein (region of amino acids 9 to 236) (Homo sapiens, UniProt P07900)
# T1 construct: region of amino acids 9 to 236; made in house
# Assay: Hsp90 protein binding assay (competition with biotinylated Radicicol)
# Conditions: at concentrations of at most 10 μmol/L
row,SMILES,inhibition of the binding of biotinylated Radicicol to the Hsp90 protein
1,"CN(C)CCc1c(Br)c(O)cc(O)c1-c1ccccc1 [Compound 99, 6-Bromo-5-[2-(N,N-dimethylamino)ethyl]-4-phenylbenzene-1,3-diol]",at least 30%
2,"COC(=O)Cc1cc(O)cc(O)c1-c1ccc2ccccc2c1 [Compound 270, Methyl-3,5-dihydroxy-2-(2-naphthyl)phenylacetate]",at least 30%
3,"CNCCc1c(Br)c(O)cc(O)c1-c1ccccc1 [Compound 98, 6-Bromo-5-[2-(N-methylamino)ethyl]-4-phenylbenzene-1,3-diol]",at least 30%
4,CCc1c(O)cc(O)c(-c2ccc(F)c(F)c2)c1CC1O[C@H](CO)[C@@H](CO)O1 [Compound 297],at least 30%
5,COC(=O)Cc1cc(O)cc(O)c1-c1cccc(C=CC(C)=O)c1 [Compound 2],at least 30%

# Tested on: human chronic myelocytic leukemia-derived K562 cells
# Assay: Cell growth inhibition test with K562 cells (WST-1)
# Format: cell-based
# Conditions: 72 hours, read-out: 50% growth inhibition concentration (GI50)
# Protocol: In a 96-well plate (Nunc), human chronic myelocytic leukemia-derived K562 cells were sown in an amount of 1500 cells/well, and pre-incubated in 10% FCS-containing Rosewell Park Memorial Institute's Medium (RPMI) 1640 (Nissui) (incubation medium) in a 5% carbon dioxide incubator at 37° C. for 5 hours. Next, a DMSO solution of a test compound controlled at 10 mmol/L was stepwise diluted with the incubation medium, and added to each well in a total amount of 100 μL/well, and further incubated in the 5% carbon dioxide incubator at 37° C. for 72 hours. After the incubation, WST-1-labeled mixture (Rosh Diagnostic) diluted 2-fold with the incubation medium was added thereto in an amount of 20 μL/well, and incubated in the 5% carbon dioxide incubator at 37° C. for 2 hours. Using a microplate spectrophotometer (Biorad's Model 550), the absorbance at 450 nm and 655 nm of each well was measured. The cell growth inhibition activity of the test compound was indicated by the 50% growth inhibition concentration (GI50) thereof, like in Test Example 2.
row,SMILES,GI50 [µM]
1,CCc1c(O)cc(O)c(-c2ccc(F)c(F)c2)c1CC1O[C@H](CO)[C@@H](CO)O1 [Compound 297],≤ 50
